Measured values: ChEMBL document CHEMBL5674883, “The Heterochromatin Landscape in Migrating Cells and the Importance of H3K27me3 for Associated Transcriptome Alterations” (Cells, 2018)
The source gives many values for each of these; only a part stands here.

Sequences of proteins named here, by UniProt entry; tags and fusion partners are left off.
UniProt Q61188, whole entry: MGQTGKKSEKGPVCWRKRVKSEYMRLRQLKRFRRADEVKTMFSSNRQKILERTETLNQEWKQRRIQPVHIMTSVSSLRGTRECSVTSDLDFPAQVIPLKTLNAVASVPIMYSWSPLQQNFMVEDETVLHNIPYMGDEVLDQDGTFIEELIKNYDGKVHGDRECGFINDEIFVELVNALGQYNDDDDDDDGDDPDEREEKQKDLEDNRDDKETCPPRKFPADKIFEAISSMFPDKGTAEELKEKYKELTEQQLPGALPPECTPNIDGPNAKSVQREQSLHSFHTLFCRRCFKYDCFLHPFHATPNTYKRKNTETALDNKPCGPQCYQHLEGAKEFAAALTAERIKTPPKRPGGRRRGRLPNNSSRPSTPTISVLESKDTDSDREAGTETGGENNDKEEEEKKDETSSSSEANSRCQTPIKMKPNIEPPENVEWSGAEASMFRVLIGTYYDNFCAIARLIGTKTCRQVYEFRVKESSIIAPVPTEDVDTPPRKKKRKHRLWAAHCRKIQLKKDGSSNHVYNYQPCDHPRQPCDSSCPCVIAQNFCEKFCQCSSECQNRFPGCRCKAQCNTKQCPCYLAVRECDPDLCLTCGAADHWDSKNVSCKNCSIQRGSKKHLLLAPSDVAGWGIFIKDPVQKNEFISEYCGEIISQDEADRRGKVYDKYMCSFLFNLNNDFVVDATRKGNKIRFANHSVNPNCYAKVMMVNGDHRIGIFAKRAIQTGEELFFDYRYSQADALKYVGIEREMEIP

Key:
Type in all cases: cell-based
[1] = biological target: T1, RNA polymerase II (Mus musculus) (UniProt P08775+Q8CFI7+P97760+A0A3Q4L2S8+Q80UW8+P61219+P62488+Q923G2+P60898+O08740+Q63871+P62876); experiment: Inhibition of RNA polymerase II in mouse B16-F1 migrating cells assessed as fold change in Gabarap-RNA stability at 0.1 mM measured by ChIP-seq analysis relative to control cells
[2] = biological target: T1, RNA polymerase II (Mus musculus); experiment: Inhibition of RNA polymerase II in mouse B16-F1 migrating cells assessed as fold change in Naa15-RNA stability at 0.1 mM measured by ChIP-seq analysis relative to control cells
[3] = biological target: T1, RNA polymerase II (Mus musculus); experiment: Inhibition of RNA polymerase II in mouse B16-F1 migrating cells assessed as fold change in Emc10-RNA stability at 0.1 mM measured by ChIP-seq analysis relative to control cells
[4] = biological target: T1, RNA polymerase II (Mus musculus); experiment: Inhibition of RNA polymerase II in mouse B16-F1 migrating cells assessed as fold change in Bola2-RNA stability at 0.1 mM measured by ChIP-seq analysis relative to control cells
[5] = biological target: T1, RNA polymerase II (Mus musculus); experiment: Inhibition of RNA polymerase II in mouse B16-F1 migrating cells assessed as fold change in Ptgds-RNA stability at 0.1 mM measured by ChIP-seq analysis relative to control cells
[6] = biological target: T1, RNA polymerase II (Mus musculus); experiment: Inhibition of RNA polymerase II in mouse B16-F1 migrating cells assessed as fold change in March7-RNA stability at 0.1 mM measured by ChIP-seq analysis relative to control cells
[7] = biological target: T1, RNA polymerase II (Mus musculus); experiment: Inhibition of RNA polymerase II in mouse B16-F1 migrating cells assessed as fold change in Guca1a-RNA stability at 0.1 mM measured by ChIP-seq analysis relative to control cells
[8] = biological target: T1, RNA polymerase II (Mus musculus); experiment: Inhibition of RNA polymerase II in mouse B16-F1 migrating cells assessed as fold change in Cdc25a-RNA stability at 0.1 mM measured by ChIP-seq analysis relative to control cells
[9] = biological target: T1, RNA polymerase II (Mus musculus); experiment: Inhibition of RNA polymerase II in mouse B16-F1 migrating cells assessed as fold change in Erbin-RNA stability at 0.1 mM measured by ChIP-seq analysis relative to control cells
[10] = biological target: T1, RNA polymerase II (Mus musculus); experiment: Inhibition of RNA polymerase II in mouse B16-F1 migrating cells assessed as fold change in Gbe1-RNA stability at 0.1 mM measured by ChIP-seq analysis relative to control cells
[11] = biological target: T1, RNA polymerase II (Mus musculus); experiment: Inhibition of RNA polymerase II in mouse B16-F1 migrating cells assessed as fold change in Plk4-RNA stability at 0.1 mM measured by ChIP-seq analysis relative to control cells
[12] = biological target: T1, RNA polymerase II (Mus musculus); experiment: Inhibition of RNA polymerase II in mouse B16-F1 migrating cells assessed as fold change in Coq4-RNA stability at 0.1 mM measured by ChIP-seq analysis relative to control cells
[13] = biological target: T1, RNA polymerase II (Mus musculus); experiment: Inhibition of RNA polymerase II in mouse B16-F1 migrating cells assessed as fold change in Ppp1cb-RNA stability at 0.1 mM measured by ChIP-seq analysis relative to control cells
[14] = biological target: T1, RNA polymerase II (Mus musculus); experiment: Inhibition of RNA polymerase II in mouse B16-F1 migrating cells assessed as fold change in Msl2-RNA stability at 0.1 mM measured by ChIP-seq analysis relative to control cells
[15] = biological target: T1, RNA polymerase II (Mus musculus); experiment: Inhibition of RNA polymerase II in mouse B16-F1 migrating cells assessed as fold change in Uxs1-RNA stability at 0.1 mM measured by ChIP-seq analysis relative to control cells
[16] = biological target: T1, RNA polymerase II (Mus musculus); experiment: Inhibition of RNA polymerase II in mouse B16-F1 migrating cells assessed as fold change in Ythdf3-RNA stability at 0.1 mM measured by ChIP-seq analysis relative to control cells
[17] = biological target: Histone-lysine N-methyltransferase EZH2 (Mus musculus) (UniProt Q61188); experiment: Inhibition of EZH2 in mouse B16-F1 migrating cells assessed as fold change in H3K27me3-buffered regulated Usp53-mRNA expression at 3 uM measured by ChIP-seq analysis relative to control cells
[18] = biological target: Histone-lysine N-methyltransferase EZH2 (Mus musculus) (UniProt Q61188); experiment: Inhibition of EZH2 in mouse B16-F1 migrating cells assessed as fold change in H3K27me3-buffered regulated Arhgef17-mRNA expression at 3 uM measured by ChIP-seq analysis relative to control cells
[19] = biological target: Histone-lysine N-methyltransferase EZH2 (Mus musculus) (UniProt Q61188); experiment: Inhibition of EZH2 in mouse B16-F1 migrating cells assessed as fold change in H3K27me3-buffered regulated Ube2cbp-mRNA expression at 3 uM measured by ChIP-seq analysis relative to control cells
[20] = biological target: Histone-lysine N-methyltransferase EZH2 (Mus musculus) (UniProt Q61188); experiment: Inhibition of EZH2 in mouse B16-F1 migrating cells assessed as fold change in H3K27me3-buffered regulated Ttc39c-mRNA expression at 3 uM measured by ChIP-seq analysis relative to control cells
[21] = biological target: Histone-lysine N-methyltransferase EZH2 (Mus musculus) (UniProt Q61188); experiment: Inhibition of EZH2 in mouse B16-F1 migrating cells assessed as fold change in H3K27me3-buffered regulated Dek-mRNA expression at 3 uM measured by ChIP-seq analysis relative to control cells
[22] = biological target: Histone-lysine N-methyltransferase EZH2 (Mus musculus) (UniProt Q61188); experiment: Inhibition of EZH2 in mouse B16-F1 migrating cells assessed as fold change in H3K27me3-buffered regulated Fgfr3-mRNA expression at 3 uM measured by ChIP-seq analysis relative to control cells
[23] = biological target: Histone-lysine N-methyltransferase EZH2 (Mus musculus) (UniProt Q61188); experiment: Inhibition of EZH2 in mouse B16-F1 migrating cells assessed as fold change in H3K27me3-buffered regulated Bcl9l-mRNA expression at 3 uM measured by ChIP-seq analysis relative to control cells
[24] = biological target: Histone-lysine N-methyltransferase EZH2 (Mus musculus) (UniProt Q61188); experiment: Inhibition of EZH2 in mouse B16-F1 migrating cells assessed as fold change in H3K27me3-buffered regulated Gm16353-mRNA expression at 3 uM measured by ChIP-seq analysis relative to control cells
[25] = biological target: Histone-lysine N-methyltransferase EZH2 (Mus musculus) (UniProt Q61188); experiment: Inhibition of EZH2 in mouse B16-F1 migrating cells assessed as fold change in H3K27me3-buffered regulated Mef2c-mRNA expression at 3 uM measured by ChIP-seq analysis relative to control cells
[26] = biological target: Histone-lysine N-methyltransferase EZH2 (Mus musculus) (UniProt Q61188); experiment: Inhibition of EZH2 in mouse B16-F1 migrating cells assessed as fold change in H3K27me3-buffered regulated Tfap4-mRNA expression at 3 uM measured by ChIP-seq analysis relative to control cells
[27] = biological target: Histone-lysine N-methyltransferase EZH2 (Mus musculus) (UniProt Q61188); experiment: Inhibition of EZH2 in mouse B16-F1 migrating cells assessed as fold change in H3K27me3-buffered regulated Pcyt1b-mRNA expression at 3 uM measured by ChIP-seq analysis relative to control cells
[28] = biological target: Histone-lysine N-methyltransferase EZH2 (Mus musculus) (UniProt Q61188); experiment: Inhibition of EZH2 in mouse B16-F1 migrating cells assessed as fold change in H3K27me3-buffered regulated Clk2-mRNA expression at 3 uM measured by ChIP-seq analysis relative to control cells
[29] = biological target: Histone-lysine N-methyltransferase EZH2 (Mus musculus) (UniProt Q61188); experiment: Inhibition of EZH2 in mouse B16-F1 migrating cells assessed as fold change in H3K27me3-dependent regulated Pim1-mRNA expression at 3 uM measured by ChIP-seq analysis relative to control cells
[30] = biological target: Histone-lysine N-methyltransferase EZH2 (Mus musculus) (UniProt Q61188); experiment: Inhibition of EZH2 in mouse B16-F1 migrating cells assessed as fold change in H3K27me3-buffered regulated Plekhg2-mRNA expression at 3 uM measured by ChIP-seq analysis relative to control cells

Question: Which results are given for OC[C@H]1O[C@@H](n2cnc3cc(Cl)c(Cl)cc32)[C@H](O)[C@@H]1O?
Answer: log2FC [1]: 0.53; log2FC [2]: -0.56; log2FC [3]: 0.4; log2FC [4]: 0.47; log2FC [5]: 0.64; log2FC [6]: -0.69; log2FC [7]: 0.83; log2FC [8]: -0.6; log2FC [9]: -0.79; log2FC [10]: 0.71; log2FC [11]: -0.53; log2FC [12]: 0.48; log2FC [13]: -0.51; log2FC [14]: -0.66; log2FC [15]: -0.66; log2FC [16]: -0.41

Question: For CCCc1cc(C)[nH]c(=O)c1CNC(=O)c1cc(-c2ccnc(N3CCN(C)CC3)c2)cc2c1cnn2C(C)C, which log2FC [17] is on record?
Answer: Its log2FC is -0.51.

Question: What about the log2FC [18] of the same compound?
Answer: Its log2FC is -0.49.

Question: What about the log2FC [19] of the same compound?
Answer: Its log2FC is -0.61.

Question: What about the log2FC [20] of the same compound?
Answer: The log2FC was 0.68.

Question: What about the log2FC [21] of the same compound?
Answer: Its log2FC is -0.46.

Question: And the log2FC [22]?
Answer: Its log2FC is -0.5.

Question: And the log2FC [23]?
Answer: Its log2FC is -0.51.

Question: What about the log2FC [24] of the same compound?
Answer: The log2FC was 0.88.

Question: And the log2FC [25]?
Answer: The log2FC was -0.96.

Question: And the log2FC [26]?
Answer: Its log2FC is -0.46.

Question: And the log2FC [27]?
Answer: Its log2FC is 0.43.

Question: What about the log2FC [28] of the same compound?
Answer: The log2FC was -0.42.

Question: What about the log2FC [29] of the same compound?
Answer: Its log2FC is -0.39.

Question: And the log2FC [30]?
Answer: The log2FC was -0.39.
